# In patent US11938195B2, “Upconversion nanoparticle peptide conjugates” (BP InnoMed Limited, priority 2021, dated 2024):
# Test system: HK1-LMP1 cells
# Assay: Two-photon confocal imaging, HK1-LMP1
# Assay type: cell-based
# Settings: 30 mg/mL, 980 nm excitation, up to 24 h
row,Substance,Sub-cellular fluorescence signal
1,"UCNP-P5: UCNP is NaGdF4:Yb^3+, Er^3+@NaGdF4 and plurality of polypeptides is Ahx-YFMVFGGRrRKGGFWLY (SEQ ID NO: 5), pH-sensitive imine linker",increased fluorescent signals with similar patterns
2,"UCNP-P6: UCNP is NaGdF4:Yb^3+, Er^3+@NaGdF4 and the plurality of polypeptides is Ahx-RrRKGGYFMVFGGFWLY (SEQ ID NO: 6)",maintained even after 24 h incubation
3,"UCNP-P7: UCNP is NaGdF4:Yb^3+, Er^3+@NaGdF4 and the plurality of polypeptides is Ahx-FWLYGGRrRKGGYFMVF (SEQ ID NO: 7)",maintained even after 24 h incubation
